Assay results from PubChem BioAssay AID540303 (National Center for Advancing Translational Sciences (NCATS), 2011).
Out of some 330,000 compounds screened, about 1,000 (0.3%) were called active. This list was built around the results that the source calls inconclusive (neither active nor inactive); the mix of calls is not that of the screen. Calls follow the shape of the dose curve; as a rule, active = well fitted inhibition curve with a large enough effect; inconclusive = small, poorly fitted or top-dose-only effect; inactive = no such curve, though single readings can be large or run the other way; tested in mouse RAW 264.7 cells. Where the call is inconclusive, the potency comes from a doubtful curve fit.

Test: qHTS for Inhibitors of Cell Surface uPA Generation; also: nearly all actives have a fitted effect of over 55% in size
Settings: cell surface uPA generation assay; series mostly up to 38.3 µM
Summary of the method: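 Murine RAW 264.7 cells are treated for 24 h with compound up to 38.3 uM final. Cell ATP, measured by ATP-Lite, remains high if blocking the uPA cascade prevents LF from reaching the cytoplasm.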
Potency is read from the fitted curve at half-maximal effect.

| SMILES | Potency |
| --- | --- |
| O=C1NC(=O)/C(=C\c2ccc(Cl)nc2)S1 | inconclusive: 11.2 µM [inhibitor, single point] |
| O=C(Nc1ccc2ccccc2c1)c1ccc(Cl)cc1Cl | inconclusive: 6.31 µM [inhibitor, partial curve] |
| O=C(NCCS(=O)(=O)NCc1ccccc1Cl)c1ccc2c(c1)OCO2 | inactive |
| CC(C)(C)c1nnc2cccc(Cl)n12 | inactive |
| COc1cc(C(=O)Nc2nc(C)c(Cc3ccc4c(c3)OCO4)s2)cc(OC)c1OC | inconclusive: 1.78 µM [inhibitor, full curve, poor fit] |
| Cc1ccccc1OCc1n(CC(=O)OC2CC(C)CCC2C(C)C)c2ccccc2[n+]1C (stereo not drawn) | inconclusive: 20 µM [inhibitor, single point] |
| CCN(CC)S(=O)(=O)c1ccc(OC)c(NS(=O)(=O)Cc2ccccc2)c1 | inactive |
| CCC(=O)Nc1cccc(C2=NN(c3ccccc3)C(c3ccc(OC)cc3)C2)c1 (stereo not drawn) | inconclusive: 11.2 µM [inhibitor, single point] |
| CCCCCCCC(=O)N/N=C/c1cccnc1 | inactive |
| CCOC(=O)c1ccc(N/C(=N\S(=O)(=O)c2ccccc2C)c2ccccc2)cc1 | inactive |
| O=C(CCS(=O)(=O)c1ccccc1)Nc1cccc(-c2nc3ccccc3s2)c1 | inconclusive: 11.2 µM [inhibitor, single point] |
| O=C(/C=C/c1ccco1)Oc1cccc2cccnc12 | inactive |
| CSC(=NC#N)N1CCN(c2ccccc2)CC1 | inactive |
| CCCCCCCCCCCCCCCC(=O)OC(CC(=O)O)C[N+](C)(C)C (stereo not drawn) | inconclusive: 12.6 µM [inhibitor, single point] |
| CCOC(=O)c1c(NC(=O)C2CCCCC2)sc2c1CCN(C(C)C)C2 | inconclusive: 2.24 µM [inhibitor, full curve, poor fit] |
| O=[N+]([O-])c1cc2ccccc2nc1-c1ccccc1 | inactive |
| Cc1cc2nnc(SCC(=O)NCC(c3ccccc3)N(C)C)n2c2ccccc12 (stereo not drawn) | inactive |
| O=C(N/N=C/c1cc(Br)ccc1O)c1ccccc1Cl | inactive |
| CCC(=O)Nc1ccc(N2CCCCC2)c(C(=O)Nc2ccccc2C)c1 | inconclusive: 0.891 µM [inhibitor, full curve, poor fit] |
| C/C=C/COC(=O)c1[nH]c2c(c1C)C(=O)CC(c1ccc(N(C)C)cc1)C2 (stereo not drawn) | inconclusive: 28.2 µM [inhibitor, single point] |
| Cc1c(Br)c([N+](=O)[O-])nn1CC(=O)N1CCN(C23CC4CC(CC(C4)C2)C3)CC1 | inconclusive: 12.6 µM [inhibitor, single point] |
| CCc1ccc(Nc2nnc(SCC(=O)N(C)C3CCS(=O)(=O)C3)s2)cc1 (stereo not drawn) | inconclusive: 5.62 µM [inhibitor, partial curve] |
| Cc1cc(Cl)nc(Cl)c1C(=O)NCCc1ccccc1 | inconclusive: 14.1 µM [inhibitor, partial curve, poor fit] |

Single values from the entries so far:
Potency, Cc1c(Br)c([N+](=O)[O-])nn1CC(=O)N1CCN(C23CC4CC(CC(C4)C2)C3)CC1 reads inconclusive: 12.6 µM [inhibitor, single point]
Potency, Cc1ccccc1OCc1n(CC(=O)OC2CC(C)CCC2C(C)C)c2ccccc2[n+]1C (stereo not drawn) reads inconclusive: 20 µM [inhibitor, single point]
Potency, O=[N+]([O-])c1cc2ccccc2nc1-c1ccccc1 reads inactive
Potency, COc1cc(C(=O)Nc2nc(C)c(Cc3ccc4c(c3)OCO4)s2)cc(OC)c1OC reads inconclusive: 1.78 µM [inhibitor, full curve, poor fit]
Potency, O=C1NC(=O)/C(=C\c2ccc(Cl)nc2)S1 reads inconclusive: 11.2 µM [inhibitor, single point]
Potency, CSC(=NC#N)N1CCN(c2ccccc2)CC1 reads inactive

(list continues)

| SMILES | Potency |
| --- | --- |
| O=C(Nc1nnc(-c2ccc3c(c2)CCCC3)o1)c1ccccc1Cl | inconclusive: 5.01 µM [inhibitor, partial curve, poor fit] |
| Cc1cc(OC(C)C(=O)Nc2ccncc2)ccc1Cl (stereo not drawn) | inactive |
| COc1ccc(/C=N/NC(=O)C[n+]2ccccc2)c(OC)c1 | inconclusive: 5.01 µM [inhibitor, single point] |
| C[C@H](CO)N1C[C@H](C)[C@@H](CN(C)CC2CCCCC2)Oc2c(NC(=O)Cc3ccccc3)cccc2C1=O | inconclusive: 28.2 µM [inhibitor, single point] |
| Cc1ccc(/C=C/C(=O)N2CCCN(C(=O)/C=C/c3ccc(C)cc3)CC2)cc1 | inactive |
| O=C(NN=Cc1c(O)ccc2ccccc12)c1ccc2c(c1)OCO2 | active: 8.91 µM |
| CCOc1ccc(OCCC(=O)OCC(=O)Nc2cc(OCC)c(N3CCOCC3)cc2OCC)cc1 | inconclusive: 10 µM [inhibitor, single point] |
| Cc1ccc(NC(=O)NNC(=O)COc2ccc([N+](=O)[O-])cc2)cc1C | inconclusive: 5.62 µM [inhibitor, single point] |
| N#C/C(=C\c1ccc(O)c(O)c1)C(=O)c1ccc(O)c(O)c1 | active: 3.98 µM |
| COc1ccc(C2=NOC(Cn3nc(-c4ccccc4)cc3C(=O)O)C2)cc1 (stereo not drawn) | inconclusive: 10 µM [inhibitor, single point] |
| COC(=O)c1ccc(CNC(=O)Cn2cnc(C(=O)Nc3ccc(C)c(C)c3)n2)cc1 | inconclusive: 1.58 µM [inhibitor, partial curve, poor fit] |
| COc1ccc(S(=O)(=O)NCc2ccccn2)cc1NC(=O)c1ccccc1F | inconclusive: 1.26 µM [inhibitor, partial curve, poor fit] |
| O=C(NC1CCCc2ccccc21)C1CCN(c2nnc(-n3cccc3)s2)CC1 (stereo not drawn) | inconclusive: 3.16 µM [inhibitor, partial curve, poor fit] |
| Cc1cccc(C)c1NC(=O)COC(=O)c1cc(=O)c2ccccc2o1 | inactive |
| CC(=O)Nc1cccc(-c2cnc(N)c(C(=O)c3cccnc3)n2)c1 | inconclusive: 28.2 µM [inhibitor, single point] |
| COc1ccc(CCNC(=O)c2cc([N+](=O)[O-])ccc2N2CCOCC2)cc1 | inconclusive: 3.16 µM [inhibitor, partial curve, poor fit] |
| S=C1NC[C@H](Cc2ccccc2)N1CC1CCN(CCCC2CCCC2)CC1 | inactive |
| CCCc1cc(N2CCN(C(=O)c3ccco3)CC2)n2c(nc3ccccc32)c1C#N | inactive |
| CSc1ccccc1NC(=O)COc1ccccc1C | inconclusive: 1.12 µM [inhibitor, full curve, poor fit] |
| CN(C)c1ccc(/C=N/NC(=O)CNC(=O)c2ccc3c(c2)OCCO3)cc1 | inactive |
| Cc1ccc(CN2CCC(CNC(=O)c3ccc(NC(=O)C4=CSCCO4)cc3)CC2)cc1 | inconclusive: 3.98 µM [inhibitor, partial curve, poor fit] |
| COC(=O)C1=CN(c2cccc(C(F)(F)F)c2)C=C(C(=O)OC)C1c1ccc(O)c(OC)c1 | inconclusive: 12.6 µM [inhibitor, single point] |
| Cc1cccc(C2=N/C(=C\c3cccs3)C(=O)O2)c1 | inconclusive: 2.82 µM [inhibitor, full curve, poor fit] |

| SMILES | Potency |
| --- | --- |
| CCOc1ncccc1C(=O)Nc1cc2c(cc1Br)OCCO2 | inconclusive: 5.62 µM [inhibitor, partial curve, poor fit] |
| COc1ccc(S(=O)(=O)N(C)C[C@H]2Oc3c(NC(=O)Nc4ccc(C(F)(F)F)cc4)cccc3C(=O)N([C@H](C)CO)C[C@@H]2C)cc1 | inconclusive: 7.94 µM [inhibitor, partial curve] |
| CCO[C@@H]1OC(C(=O)N2CCN(Cc3ccc4c(c3)OCO4)CC2)=C[C@H](c2csc3ccccc23)[C@H]1CCCO | inconclusive: 14.1 µM [inhibitor, single point] |
| O=C(NCCN1CCCC1)c1ccc2c(c1)N(Cc1cccc(Cl)c1)C(=O)c1ccccc1S2(=O)=O | inconclusive: 8.91 µM [inhibitor, partial curve, poor fit] |
| CC(C)(C)C(=O)NC(NC(=S)Nc1sc2c(c1C#N)CCCC2)C(Cl)(Cl)Cl (stereo not drawn) | inactive |
| C[C@@H]1CN([C@H](C)CO)C(=O)c2cc(NC(=O)Nc3ccc(C(F)(F)F)cc3)ccc2O[C@H]1CN(C)S(=O)(=O)c1ccccc1 | inconclusive: 12.6 µM [inhibitor, single point] |
| CC[C@]12c3[nH]c4ccccc4c3CCN1C(=O)C(CC(=O)NC/C=C(\C)CCC=C(C)C)C[C@@H]2C(=O)N1CCN(C(=O)C2CC2)CC1 (stereo partly drawn) | inconclusive: 25.1 µM [inhibitor, single point] |
| COC(=O)c1ccc(N2C(=O)Nc3ccccc3N2O)cc1 | inconclusive: 7.08 µM [inhibitor, single point] |
| Cc1ccc(-c2nnc(-c3cc(C)on3)o2)cc1 | inconclusive: 5.62 µM [inhibitor, partial curve] |
| O=C(NC1CCCC(C(F)(F)F)C1)c1ccc([N+](=O)[O-])o1 (stereo not drawn) | inconclusive: 11.2 µM [inhibitor, partial curve, poor fit] |
| CC(C)(C)N=C1NN=C(c2ccc(Cl)cc2)CS1 | inconclusive: 12.6 µM [inhibitor, single point] |
| O=c1c2ccccc2sc2ccccc12 | inactive |
| O=C(CSc1ccccn1)N1CCNC1=O | inactive |
| COc1ccc(N(C)C(=O)C2CCCN2S(=O)(=O)c2cccc3nsnc23)c(OC)c1 (stereo not drawn) | inconclusive: 1.26 µM [inhibitor, full curve, poor fit] |
| CN(C)/C=C/c1c([N+](=O)[O-])c2ccc(O)cc2n1-c1ccccc1 | inactive |
| CCOc1ccc(-c2cn(-c3ccc(OC)cc3)c(SC)n2)cc1 | inactive |
| COc1ccccc1NC(=S)N/N=C/c1cccc(C)c1 | inactive |
| CCOC(=O)c1ccccc1NC(=S)N1CC(C)CC(C)C1 (stereo not drawn) | inactive |
| Oc1ccc(C=Nc2ccccc2-c2nc3ccccc3[nH]2)c(O)c1 | inconclusive: 11.2 µM [inhibitor, partial curve, poor fit] |
| COc1cccc(Oc2cn[nH]c2-c2ccc(O)cc2O)c1 | inactive |
| Cc1ccc(OCC(=O)NNC(=O)C2CCC2)cc1C | inconclusive: 3.55 µM [inhibitor, full curve, poor fit] |
| Cc1ccccc1NC(=O)c1cc2ccccn2n1 | inconclusive: 12.6 µM [inhibitor, partial curve, poor fit] |
